Experimental data from patent US7691862B2, “Method and composition for treating periodontal disease” (Regena Therapeutics LC, priority 2003, dated 2010).
At least one structure is not confirmed: it was looked up by name or label, or the drawing left a doubt.

Test system: periodontal pockets of patients with moderate-to-advanced periodontitis
Test: Randomized double-blind placebo-controlled study: change in periodontal pocket probing depth after scaling, root planing and curettage
Format: in vivo, human
Protocol: 1.1 Overall Study Design and Plan This was a randomized, double-blind, single-center, multiple-dose, parallel-group, placebo-controlled study. At baseline, patients presenting at Periodontal Specialists of Ames for the treatment of periodontitis were screened for the study. Patients were assessed using medical histories, dental histories, blood pressure, pulse, pregnancy tests (if female), periapical radiographs and periodontal examinations. Patients who met all of the inclusion and exclusion criteria, appeared in good health other than periodontitis, and who had documented moderate-to-advanced periodontitis with at least four destructive periodontal-diseased pockets (ranging from 5 to 12 mm in depth) were eligible for study participation. Each patient underwent a gross debridement, following which, he/she was randomized to one of four treatment groups: […]
1.5.1.2.1. Periodontal Pocket Probing Depth Periodontal probing depths were measured at baseline, at six weeks post-treatment, and at 3, 6, 9 and 12 months post-treatment. […]
The measurement from the tip of the probe to the gingival margin (GM-BP, gingival margin to the base of the pocket) was recorded in millimeters. On measurements of proximal sites the gingival margin may cross the probe at an angle, and the highest point on the side of the probe was read. […]

Compound: C[C@H]1c2cccc(O)c2C(=O)C2=C(O)[C@]3(O)C(=O)C(C(N)=O)=C(O)[C@@H](N(C)C)[C@@H]3[C@@H](O)[C@@H]21 [Doxycycline]
- improvements in pocket depths compared to scaling, root planning and curettage alone (52 weeks post-treatment): failed to provide any additional benefit
- tooth mobility (along with the decreases in pocket depth): not
